Source: publication PMC8832859
No constants are given. Whether binding was seen depends on the method and setting. In cells and extracts the contact can be indirect. Some binding calls cover weakened binding; strength is not graded here.

Chains of the proteins cited; added tags and fusions are not shown.
UniProt Q96P20: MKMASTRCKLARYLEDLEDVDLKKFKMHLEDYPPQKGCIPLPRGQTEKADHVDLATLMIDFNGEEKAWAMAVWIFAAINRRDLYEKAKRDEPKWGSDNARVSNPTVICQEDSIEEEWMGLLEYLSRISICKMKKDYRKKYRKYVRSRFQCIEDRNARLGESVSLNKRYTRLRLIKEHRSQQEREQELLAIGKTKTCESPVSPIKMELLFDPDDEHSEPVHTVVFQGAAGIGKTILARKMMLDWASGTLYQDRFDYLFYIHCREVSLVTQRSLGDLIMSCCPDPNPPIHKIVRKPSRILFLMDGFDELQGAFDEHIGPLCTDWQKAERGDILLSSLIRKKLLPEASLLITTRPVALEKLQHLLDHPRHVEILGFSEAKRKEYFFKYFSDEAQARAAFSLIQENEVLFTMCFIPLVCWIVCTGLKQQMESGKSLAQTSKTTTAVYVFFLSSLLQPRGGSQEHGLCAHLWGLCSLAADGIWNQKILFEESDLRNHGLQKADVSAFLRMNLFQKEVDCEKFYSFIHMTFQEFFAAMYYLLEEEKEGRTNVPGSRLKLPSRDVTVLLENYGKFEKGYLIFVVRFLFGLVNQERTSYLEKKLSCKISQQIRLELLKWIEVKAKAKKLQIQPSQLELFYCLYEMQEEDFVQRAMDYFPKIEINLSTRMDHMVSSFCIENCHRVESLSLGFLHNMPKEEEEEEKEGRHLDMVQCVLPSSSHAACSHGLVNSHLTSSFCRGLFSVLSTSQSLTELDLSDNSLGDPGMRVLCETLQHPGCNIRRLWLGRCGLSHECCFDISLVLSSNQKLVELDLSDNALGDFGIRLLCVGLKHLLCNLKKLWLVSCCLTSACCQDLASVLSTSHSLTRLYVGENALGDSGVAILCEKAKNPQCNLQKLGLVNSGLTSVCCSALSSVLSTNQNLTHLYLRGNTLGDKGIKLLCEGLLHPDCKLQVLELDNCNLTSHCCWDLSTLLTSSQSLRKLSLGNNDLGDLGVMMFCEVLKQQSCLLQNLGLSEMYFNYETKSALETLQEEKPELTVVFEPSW

Target: T1, Fermitin family member 1 (FERMT1) (human (endogenous in HK1 and CNE2)) (UniProt Q9BQL6)
T1 sequence: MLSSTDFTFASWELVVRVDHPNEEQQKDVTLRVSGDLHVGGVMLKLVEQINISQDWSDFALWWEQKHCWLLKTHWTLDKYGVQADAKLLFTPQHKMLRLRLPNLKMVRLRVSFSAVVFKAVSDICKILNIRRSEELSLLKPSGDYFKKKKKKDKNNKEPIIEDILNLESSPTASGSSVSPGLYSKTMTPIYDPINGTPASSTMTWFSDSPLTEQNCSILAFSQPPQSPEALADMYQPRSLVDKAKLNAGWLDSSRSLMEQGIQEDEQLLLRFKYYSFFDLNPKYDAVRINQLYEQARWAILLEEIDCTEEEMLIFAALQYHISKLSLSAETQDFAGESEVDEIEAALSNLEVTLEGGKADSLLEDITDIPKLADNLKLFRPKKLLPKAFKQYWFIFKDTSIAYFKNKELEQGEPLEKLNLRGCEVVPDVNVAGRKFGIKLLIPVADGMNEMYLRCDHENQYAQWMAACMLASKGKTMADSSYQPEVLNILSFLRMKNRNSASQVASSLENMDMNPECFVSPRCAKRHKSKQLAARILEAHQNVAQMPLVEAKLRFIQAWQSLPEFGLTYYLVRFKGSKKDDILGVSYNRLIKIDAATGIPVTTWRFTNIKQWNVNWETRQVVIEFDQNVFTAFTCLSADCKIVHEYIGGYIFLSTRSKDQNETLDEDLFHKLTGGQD
Experiment: co-IP; lysates of NPC cells (HK1 and CNE2) in cold co-immunoprecipitation buffer; immunoprecipitation with anti-FERMT1 or anti-NLRP3 antibody on protein A/G magnetic beads; bound protein detected by western blotting

- binding: binds
Substance: Nod-like receptor family protein 3 (NLRP3) (from UniProt Q96P20 1-1036)
